Results are given in words; binding and its absence hold for the method and conditions named. Some entries that bind do so weakly or less than the wild type.

Protein sequences, listed by entry. Tags and fused reporters are not part of them. Residues count along the entry.
UniProt P18627, residues 23-450: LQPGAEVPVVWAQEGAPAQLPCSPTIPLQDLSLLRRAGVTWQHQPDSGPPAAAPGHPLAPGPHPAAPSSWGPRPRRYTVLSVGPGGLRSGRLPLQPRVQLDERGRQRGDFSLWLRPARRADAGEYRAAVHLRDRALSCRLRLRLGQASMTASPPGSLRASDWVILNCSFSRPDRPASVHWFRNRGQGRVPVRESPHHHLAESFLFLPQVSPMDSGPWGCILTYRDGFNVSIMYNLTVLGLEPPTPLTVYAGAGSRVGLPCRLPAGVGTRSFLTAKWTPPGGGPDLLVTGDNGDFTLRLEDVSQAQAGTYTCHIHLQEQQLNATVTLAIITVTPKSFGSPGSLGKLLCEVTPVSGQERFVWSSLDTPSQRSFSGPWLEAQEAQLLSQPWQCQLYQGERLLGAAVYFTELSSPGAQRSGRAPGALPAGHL

This test concerns the target recombinant human LAG-3 fusion protein (human) (UniProt P18627). Briefly: BIAcore, capture method.

B1: 25E3 human monoclonal antibody (antibody, IgG1, V domains shown)
VH: EVQLVESGGGVVRPGGSLRLSCAASGFTFDDYGMSWVRQAPGKGLEWVSGINWNGGSTYYADSVKGRFTISGDNAKNSLYLQMNSLRAEDTALYYCTTGGYWGQGTLVTVSS
VL: AIQLTQSPSSLSASVGDRVTITCRASQGIRSALAWYQQKPGKAPKLLIYDASSLESGVPSRFSGSGSGTDFTLTISSLQPEDFATYYCQQFNSYPYTFGQGTKLEIK
Consider B1, for which the binding result is “binds”.

(Values after US20200231671A1.)
